# PubChem BioAssay AID588590 (National Center for Advancing Translational Sciences (NCATS), 2011)
# Sequences of proteins named here, by UniProt entry; tags and fusion partners are left off. A change or cut given only in a name is not applied to a line headed by its entry.
# UniProt Q9UNA4: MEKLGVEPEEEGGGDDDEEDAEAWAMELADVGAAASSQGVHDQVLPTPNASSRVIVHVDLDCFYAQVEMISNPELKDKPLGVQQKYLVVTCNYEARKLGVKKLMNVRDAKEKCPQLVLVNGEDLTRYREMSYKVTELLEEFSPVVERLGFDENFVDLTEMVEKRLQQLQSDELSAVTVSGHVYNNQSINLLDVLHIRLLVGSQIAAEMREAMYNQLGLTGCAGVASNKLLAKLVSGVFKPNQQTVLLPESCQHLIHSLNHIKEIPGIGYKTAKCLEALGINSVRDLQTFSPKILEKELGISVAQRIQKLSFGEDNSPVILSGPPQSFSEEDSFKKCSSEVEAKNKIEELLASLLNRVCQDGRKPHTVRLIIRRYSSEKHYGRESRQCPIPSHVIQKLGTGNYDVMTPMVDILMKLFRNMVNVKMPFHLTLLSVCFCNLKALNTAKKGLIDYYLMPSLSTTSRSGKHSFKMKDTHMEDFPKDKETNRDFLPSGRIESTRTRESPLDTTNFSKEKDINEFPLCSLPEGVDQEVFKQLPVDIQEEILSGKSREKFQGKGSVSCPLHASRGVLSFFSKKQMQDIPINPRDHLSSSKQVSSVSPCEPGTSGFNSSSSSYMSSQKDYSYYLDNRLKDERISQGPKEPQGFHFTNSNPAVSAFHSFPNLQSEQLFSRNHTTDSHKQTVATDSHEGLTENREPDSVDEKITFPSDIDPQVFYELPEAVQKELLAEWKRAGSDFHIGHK
# About 4,000 (1%) of roughly 390,000 compounds were called active. The inconclusive results got no clear call from the source; some entries with a clear call stand among them for comparison. The call rests on the fitted dose curve; in most records, active means well fitted inhibition curve with a large enough effect; inconclusive means small, poorly fitted or top-dose-only effect, or another doubt; inactive means no such curve, though single readings can be large or run the other way. Potencies of inconclusive entries are doubtful fits and often do not repeat.
# Target: DNA polymerase iota (Homo sapiens) (UniProt Q9UNA4)
# Test: qHTS for Inhibitors of Polymerase Iota
# Conditions: Pol iota fluorescent replication assay, 10 min; series mostly up to 115 µM; activity, negative = inhibition: at the top concentration
# Method in brief: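 Pol iota at 10 nM preincubated 15 min with compounds at room temperature; reaction started with fluorescent substrate, 50 nM final. Fluorescence read kinetically at 0 and 10 min; buffer-only wells as negative control.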
# Potency means the concentration at half of the fitted maximal effect.
SMILES,Potency,"activity, negative = inhibition"
O=C1N/C(=N/Nc2ccccc2)S/C1=C\c1ccccc1,"inconclusive: 15.8 µM [inhibitor, partial curve]",–
Cc1c(Cl)cccc1NC(=O)CSc1nc2ncccc2o1,–,inactive: -5.5%
O=C1NC(=O)/C(=C\c2ccc(Oc3cnccn3)cc2)S1,–,inactive: 51%
Cc1cc(-n2c(C)cc(C(=O)CCl)c2C)no1,"inconclusive: 12.6 µM [inhibitor, full curve]",–
CC(CCC(C)[n+]1cccc(C#N)c1)[n+]1cccc(C#N)c1 (centres undefined),"inconclusive: 89.1 µM [inhibitor, single point]",–
CN(c1ccc(OCC(=O)Nc2nc3ccccc3s2)cc1)S(=O)(=O)c1ccccc1,"inconclusive: 89.1 µM [inhibitor, single point]",–
Cc1cccc(-c2nc3c(cnn3-c3ccccc3)c(=O)n2-c2ccc(Br)cc2)c1,"inconclusive: 10 µM [inhibitor, full curve]",–
O=c1c(N2CCOCC2)nsn1Cc1ccccc1,"inconclusive: 2.82 µM [inhibitor, full curve, poor fit]",–
CC(C)(C)C1CCc2nc(NC(=O)c3ccc([N+](=O)[O-])cc3)sc2C1 (centres undefined),"inconclusive: 100 µM [inhibitor, single point]",–
CC1Cn2c(C(=O)NCc3cccc(Br)c3)cc3cccc(c32)S1 (centres undefined),–,inactive: 6.81%
COc1ccc(N2CCN(C(=O)NC3CCCCC3)CC2)cc1,active: 89.1 µM,–
NS(=O)(=O)c1ccc(CCNC(=O)CCCCCn2c(=S)[nH]c3ccc(Br)cc3c2=O)cc1,"inconclusive: 56.2 µM [inhibitor, partial curve, poor fit]",–
CCc1ccc(Nc2n[n+](-c3ccccc3)c(-c3ccc(N(CC)CC)cc3)s2)cc1,"inconclusive: 10 µM [inhibitor, single point]",–
C[C@H](CO)N1C[C@H](C)[C@@H](CN(C)Cc2ccc(C(=O)O)cc2)Oc2ccc(NC(=O)Cn3cnnn3)cc2C1=O,"inconclusive: 35.5 µM [inhibitor, single point]",–
COc1ccccc1-n1c(=S)[nH]c2c(sc(=S)n2-c2ccc(C)cc2C)c1=O,"inconclusive: 8.91 µM [inhibitor, full curve, poor fit]",–
CSc1nncn1/N=C/c1cc(Cl)ccc1F,"inconclusive: 89.1 µM [inhibitor, single point]",–
O=C(O)CCCCN1C(=O)/C(=C\c2ccc(OCc3ccccc3)c(OCc3ccccc3)c2)SC1=S,"inconclusive: 14.1 µM [inhibitor, full curve]",–
O=C(O)c1ccc2c(c1)C1C=CCC1C(c1cc3c(cc1Br)OCO3)N2 (centres undefined),"inconclusive: 56.2 µM [inhibitor, partial curve, poor fit]",–
Cc1cccc(CCNC(=O)c2ccc(CSCc3cccc(Cl)c3)o2)c1,–,inactive: -6.99%
CCc1nc(Nc2ccc(NC(C)=O)cc2)c2oc3ccccc3c2n1,"inconclusive: 50.1 µM [inhibitor, partial curve]",–
NC(=O)c1nc(-c2ccco2)nc2c1[nH]c(=O)n2-c1ccc(Cl)c(Cl)c1,"inconclusive: 35.5 µM [inhibitor, single point]",–
Cc1ccc(CNc2ccc(N3CCOCC3)cc2)s1,"inconclusive: 39.8 µM [inhibitor, single point]",–

SMILES,Potency,"activity, negative = inhibition"
COc1ccc(NS(=O)(=O)c2ccc(N3CCCC3)c(NC(=S)Nc3cccc(C)c3C)c2)cc1,"inconclusive: 28.2 µM [inhibitor, partial curve, poor fit]",–
CSc1ccc(C(=O)C2CCCN(C(=O)c3cc(C)n(C)n3)C2)cc1 (centres undefined),"inconclusive: 17.8 µM [inhibitor, partial curve, poor fit]",–
CCc1ccc2c(c1)/C(=C/C(=O)c1cccs1)C(=O)N2,"inconclusive: 22.4 µM [inhibitor, partial curve]",–
O=C(CCN1CCN(C/C=C/c2ccccc2)CC1)Nc1ccccc1Cl,"inconclusive: 44.7 µM [inhibitor, partial curve, poor fit]",–
N#CC1=C2SCN(C3CCCCC3)CN2C(=O)CC1c1c(F)cccc1Cl (centres undefined),"inconclusive: 17.8 µM [inhibitor, full curve, poor fit]",–
O=C(NCCCn1ccnc1)c1cccc(S(=O)(=O)Nc2ccccc2F)c1,"inconclusive: 50.1 µM [inhibitor, partial curve]",–
Cn1c(SCC(=O)CC(=O)Nc2ccccc2)nnc1-c1ccc(O)cc1,"inconclusive: 100 µM [inhibitor, partial curve, poor fit]",–
COc1ccccc1CCn1c(N)c(C#N)c2nc3ccccc3nc21,"inconclusive: 28.2 µM [inhibitor, single point]",–
COc1ccc(-c2ccc3c(c2)S(=O)(=O)c2cccc(C(=O)N4CCN(c5c(Cl)cncc5Cl)CC4)c2C3=O)cc1OC,"inconclusive: 44.7 µM [inhibitor, partial curve]",–
CCC(C)NC(=O)CCc1c(C)nc2c(c(C)nn2-c2ccc(C)cc2)c1C (centres undefined),–,inactive: 4.01%
Fc1ccc(Cn2nnc3ccccc32)cc1,"inconclusive: 22.4 µM [inhibitor, partial curve, poor fit]",–
O=S(=O)(N1CCN(c2nc(-c3cccs3)nc3ccccc23)CC1)C(F)(F)F,–,inactive: -8.5%
Cc1nn(CCC(=O)NCc2ccc(Cl)cc2)c(=O)c2nn(-c3ccccc3)c(C)c12,"inconclusive: 31.6 µM [inhibitor, partial curve, poor fit]",–
[N-]=[N+]=NC[C@H](Cc1ccccc1)N1CC[C@@H](NC(=O)OCc2ccccc2)CCC1=O,"inconclusive: 28.2 µM [inhibitor, single point]",–
COc1ccc(CCCc2nnc(SCC(=O)Nc3cccc(C)c3)o2)cc1,"inconclusive: 100 µM [inhibitor, partial curve, poor fit]",–
O=C(N/N=C/c1cccnc1)c1cccc(NC(=O)c2ccc(Cl)cc2)c1,"inconclusive: 50.1 µM [inhibitor, partial curve, poor fit]",–
Cc1ccccc1OCC(=O)Nc1nnc(-c2ccco2)s1,"inconclusive: 39.8 µM [inhibitor, partial curve, poor fit]",–
CC(CNC(=O)C1CCN(C(=O)N2CCOc3ccc(Cl)cc32)CC1)c1ccccc1 (centres undefined),–,inactive: -2.2%
COc1cc(CCCN[C@H](CN)Cc2ccccc2)cc(OC)c1OC,"inconclusive: 35.5 µM [inhibitor, partial curve]",–
CC(=O)c1cccc(NC(=O)CN2C(=O)COc3ccc(Cl)cc32)c1,"inconclusive: 79.4 µM [inhibitor, partial curve]",–
O=C(NN=Cc1ccccc1OC(F)F)c1ccc(NS(=O)(=O)c2cccs2)cc1,–,inactive: 8.41%
Cc1cccc(C(=O)OCC(=O)N(C)c2ccccc2)c1C,–,inactive: -6.58%

# 11 compounds out of the list, sorted by heavy-atom count, smallest number first.
SMILES,Potency,"activity, negative = inhibition"
Fc1ccc(Cn2nnc3ccccc32)cc1,"inconclusive: 22.4 µM [inhibitor, partial curve, poor fit]",–
CCc1ccc2c(c1)/C(=C/C(=O)c1cccs1)C(=O)N2,"inconclusive: 22.4 µM [inhibitor, partial curve]",–
Cc1ccccc1OCC(=O)Nc1nnc(-c2ccco2)s1,"inconclusive: 39.8 µM [inhibitor, partial curve, poor fit]",–
CSc1ccc(C(=O)C2CCCN(C(=O)c3cc(C)n(C)n3)C2)cc1 (centres undefined),"inconclusive: 17.8 µM [inhibitor, partial curve, poor fit]",–
COc1cc(CCCN[C@H](CN)Cc2ccccc2)cc(OC)c1OC,"inconclusive: 35.5 µM [inhibitor, partial curve]",–
O=C(N/N=C/c1cccnc1)c1cccc(NC(=O)c2ccc(Cl)cc2)c1,"inconclusive: 50.1 µM [inhibitor, partial curve, poor fit]",–
O=S(=O)(N1CCN(c2nc(-c3cccs3)nc3ccccc23)CC1)C(F)(F)F,–,inactive: -8.5%
O=C(NN=Cc1ccccc1OC(F)F)c1ccc(NS(=O)(=O)c2cccs2)cc1,–,inactive: 8.41%
Cc1nn(CCC(=O)NCc2ccc(Cl)cc2)c(=O)c2nn(-c3ccccc3)c(C)c12,"inconclusive: 31.6 µM [inhibitor, partial curve, poor fit]",–
COc1ccc(NS(=O)(=O)c2ccc(N3CCCC3)c(NC(=S)Nc3cccc(C)c3C)c2)cc1,"inconclusive: 28.2 µM [inhibitor, partial curve, poor fit]",–
COc1ccc(-c2ccc3c(c2)S(=O)(=O)c2cccc(C(=O)N4CCN(c5c(Cl)cncc5Cl)CC4)c2C3=O)cc1OC,"inconclusive: 44.7 µM [inhibitor, partial curve]",–

# Entries of single compounds as entered above. Order of values: Potency | activity, negative = inhibition
# [N-]=[N+]=NC[C@H](Cc1ccccc1)N1CC[C@@H](NC(=O)OCc2ccccc2)CCC1=O as listed: inconclusive: 28.2 µM [inhibitor, single point] | –
# CCc1ccc2c(c1)/C(=C/C(=O)c1cccs1)C(=O)N2 as listed: inconclusive: 22.4 µM [inhibitor, partial curve] | –

# Later entries:

SMILES,Potency,"activity, negative = inhibition"
Cc1cc(NC(=O)CCN2C(=O)/C(=C\c3ccccc3)SC2=S)no1,"inconclusive: 89.1 µM [inhibitor, partial curve, poor fit]",–
CCC(C)c1ccc(OCc2ccc(C(=O)O)o2)cc1 (centres undefined),"inconclusive: 56.2 µM [inhibitor, partial curve, poor fit]",–
C/C(CC(=O)Nc1ccc(Cl)c(Cl)c1)=N\NC(N)=S,–,inactive: 21.7%
COc1ccc(NS(=O)(=O)c2cccc(C(=O)NNC(=O)c3ccc(O)c(Cl)c3)c2)cc1,"inconclusive: 89.1 µM [inhibitor, single point]",–
CS(=O)(=O)c1ccc(C(=O)OCC(=O)Nc2cc(C(F)(F)F)ccc2Cl)cc1[N+](=O)[O-],–,inactive: -13.5%
CCOC(=O)c1[nH]c(=O)[nH]c1CSc1ccccn1,"inconclusive: 12.6 µM [inhibitor, partial curve, poor fit]",–
COc1ccc(CCNC(=O)c2nc(SCc3ccccc3F)ncc2Cl)cc1OC,"inconclusive: 89.1 µM [inhibitor, single point]",–
Cc1cccc(C(=O)NC(=S)NNC(=O)COc2c(C)cccc2C)c1,–,inactive: 13.1%
CCOC(=O)c1cc2c(=O)n3ccccc3nc2n(Cc2ccco2)c1=NC(=O)c1ccc(C)c(C)c1,"inconclusive: 79.4 µM [inhibitor, partial curve]",–
O=C(Cn1c(=O)oc2cc(S(=O)(=O)N3CCCCCC3)ccc21)Nc1ccc(F)cc1F,"inconclusive: 89.1 µM [inhibitor, single point]",–
Cc1nn2c(=O)cc(COC(=O)c3ccc(NC(=O)c4cccc(Br)c4)cc3)nc2s1,–,inactive: -26.8%
Cc1ccc[n+](-c2nc([O-])sc2C=O)c1,"inconclusive: 39.8 µM [inhibitor, full curve, poor fit]",–
COc1ccc(C2=CC3=C(Br)C(=O)C(C)(OC(=O)C4CCCC4)C(=O)C3=CO2)cc1 (centres undefined),active: 39.8 µM,–
CC(NC(=O)COC(=O)/C=C/c1ccc(Cl)cc1)c1ccccc1 (centres undefined),"inconclusive: 100 µM [inhibitor, partial curve, poor fit]",–
O=C(C1CC12CCCC2)N1CCC(CO)(Cc2ccccc2Cl)CC1 (centres undefined),–,inactive: 3.32%
Cc1ccc(/C=C/C(=O)O)cc1S(=O)(=O)Nc1ccc(C(=O)O)cc1,–,inactive: -3.48%
COCc1cc(C)nc2sc3c(c12)NC(c1ccc(O)c(OC)c1)N(c1ccccc1)C3=O (centres undefined),"inconclusive: 39.8 µM [inhibitor, single point]",–
COc1cc(C(=O)NNC(=O)c2cccc(Cl)c2)ccc1OCC(=O)N1CCOCC1,"inconclusive: 89.1 µM [inhibitor, single point]",–
COc1cccc(Nc2nc(C)nc3c2oc2ccccc23)c1,"inconclusive: 31.6 µM [inhibitor, single point]",–
COc1ccc(/C=C/C(=O)NCCSCc2ccco2)cc1,"inconclusive: 50.1 µM [inhibitor, partial curve, poor fit]",–
